Source: ChEMBL document CHEMBL4316593 (Eur J Med Chem, 2019)
The source gives many values for each of these; only a part stands here.

Legend:
Assay type in all cases: cell-based
Conditions in all cases: U-87MG ATCC
[1] = Inhibition of RTK/PI3K/AKT/mTOR signaling in human U87 cells assessed as down regulation of SBSN gene expression at cytotoxic IC50 measured after 48 hrs relative to control
[2] = Inhibition of RTK/PI3K/AKT/mTOR signaling in human U87 cells assessed as up regulation of coatomer protein complex subunit zeta 1 gene expression at cytotoxic IC50 measured after 48 hrs relative to control
[3] = Inhibition of RTK/PI3K/AKT/mTOR signaling in human U87 cells assessed as down regulation of EIF2B1 gene expression at cytotoxic IC50 measured after 48 hrs relative to control
[4] = Inhibition of RTK/PI3K/AKT/mTOR signaling in human U87 cells assessed as up regulation of SMU1 gene expression at cytotoxic IC50 measured after 48 hrs relative to control
[5] = Inhibition of RTK/PI3K/AKT/mTOR signaling in human U87 cells assessed as up regulation of PTP4A3 gene expression at cytotoxic IC50 measured after 48 hrs relative to control
[6] = Inhibition of RTK/PI3K/AKT/mTOR signaling in human U87 cells assessed as down regulation of UBA1 gene expression at cytotoxic IC50 measured after 48 hrs relative to control
[7] = Inhibition of RTK/PI3K/AKT/mTOR signaling in human U87 cells assessed as down regulation of PARVA gene expression at cytotoxic IC50 measured after 48 hrs relative to control
[8] = Inhibition of RTK/PI3K/AKT/mTOR signaling in human U87 cells assessed as down regulation of NSFL1C gene expression at cytotoxic IC50 measured after 48 hrs relative to control
[9] = Inhibition of RTK/PI3K/AKT/mTOR signaling in human U87 cells assessed as down regulation of CEP55 gene expression at cytotoxic IC50 measured after 48 hrs relative to control
[10] = Inhibition of RTK/PI3K/AKT/mTOR signaling in human U87 cells assessed as down regulation of PKNOX1 gene expression at cytotoxic IC50 measured after 48 hrs relative to control
[11] = Inhibition of RTK/PI3K/AKT/mTOR signaling in human U87 cells assessed as up regulation of SH3 and multiple ankyrin repeat domains 2 gene expression at cytotoxic IC50 measured after 48 hrs relative to control
[12] = Inhibition of RTK/PI3K/AKT/mTOR signaling in human U87 cells assessed as down regulation of ZNF79 gene expression at cytotoxic IC50 measured after 48 hrs relative to control
[13] = Inhibition of RTK/PI3K/AKT/mTOR signaling in human U87 cells assessed as down regulation of KRTAP2-3 gene expression at cytotoxic IC50 measured after 48 hrs relative to control
[14] = Inhibition of RTK/PI3K/AKT/mTOR signaling in human U87 cells assessed as up regulation of tRNA isopentenyltransferase 1 gene expression at cytotoxic IC50 measured after 48 hrs relative to control
[15] = Inhibition of RTK/PI3K/AKT/mTOR signaling in human U87 cells assessed as down regulation of PLRG1 gene expression at cytotoxic IC50 measured after 48 hrs relative to control
[16] = Inhibition of RTK/PI3K/AKT/mTOR signaling in human U87 cells assessed as up regulation of RAB3IL1 gene expression at cytotoxic IC50 measured after 48 hrs relative to control
[17] = Inhibition of RTK/PI3K/AKT/mTOR signaling in human U87 cells assessed as up regulation of formin like 2 gene expression at cytotoxic IC50 measured after 48 hrs relative to control
[18] = Inhibition of RTK/PI3K/AKT/mTOR signaling in human U87 cells assessed as up regulation of HNRNPA1 gene expression at cytotoxic IC50 measured after 48 hrs relative to control
[19] = Inhibition of RTK/PI3K/AKT/mTOR signaling in human U87 cells assessed as up regulation of Pvt1 oncogene (non-protein coding) gene expression at cytotoxic IC50 measured after 48 hrs relative to control
[20] = Inhibition of RTK/PI3K/AKT/mTOR signaling in human U87 cells assessed as up regulation of TNF alpha induced protein 2 gene expression at cytotoxic IC50 measured after 48 hrs relative to control
[21] = Inhibition of RTK/PI3K/AKT/mTOR signaling in human U87 cells assessed as up regulation of protein disulfide isomerase family A member 6 gene expression at cytotoxic IC50 measured after 48 hrs relative to control
[22] = Inhibition of RTK/PI3K/AKT/mTOR signaling in human U87 cells assessed as up regulation of protein kinase cAMP-activated catalytic subunit beta gene expression at cytotoxic IC50 measured after 48 hrs relative to control
[23] = Inhibition of RTK/PI3K/AKT/mTOR signaling in human U87 cells assessed as down regulation of MELK gene expression at cytotoxic IC50 measured after 48 hrs relative to control
[24] = Inhibition of RTK/PI3K/AKT/mTOR signaling in human U87 cells assessed as down regulation of ZNF530 gene expression at cytotoxic IC50 measured after 48 hrs relative to control
[25] = Inhibition of RTK/PI3K/AKT/mTOR signaling in human U87 cells assessed as up regulation of out at first homolog gene expression at cytotoxic IC50 measured after 48 hrs relative to control
[26] = Inhibition of RTK/PI3K/AKT/mTOR signaling in human U87 cells assessed as up regulation of FZD2 gene expression at cytotoxic IC50 measured after 48 hrs relative to control
[27] = Inhibition of RTK/PI3K/AKT/mTOR signaling in human U87 cells assessed as down regulation of ZXDC gene expression at cytotoxic IC50 measured after 48 hrs relative to control
[28] = Inhibition of RTK/PI3K/AKT/mTOR signaling in human U87 cells assessed as up regulation of RPRD1A gene expression at cytotoxic IC50 measured after 48 hrs relative to control
[29] = Inhibition of RTK/PI3K/AKT/mTOR signaling in human U87 cells assessed as down regulation of MAP1S gene expression at cytotoxic IC50 measured after 48 hrs relative to control
[30] = Inhibition of RTK/PI3K/AKT/mTOR signaling in human U87 cells assessed as down regulation of VPS18 gene expression at cytotoxic IC50 measured after 48 hrs relative to control
[31] = Inhibition of RTK/PI3K/AKT/mTOR signaling in human U87 cells assessed as down regulation of MEAF6 gene expression at cytotoxic IC50 measured after 48 hrs relative to control
[32] = Inhibition of RTK/PI3K/AKT/mTOR signaling in human U87 cells assessed as down regulation of ZNF708 gene expression at cytotoxic IC50 measured after 48 hrs relative to control

## CC(=O)C(=NNc1ccccc1C#N)C(C)=O
[1]
  log2FC: -3.32
[2]
  log2FC: 0.765
[3]
  log2FC: -0.809
[4]
  log2FC: 0.467
[5]
  log2FC: 2.12
[6]
  log2FC: -0.542
[7]
  log2FC: -1.13
[8]
  log2FC: -0.732
[9]
  log2FC: -0.725
[10]
  log2FC: -0.768
[11]
  log2FC: 1.24
[12]
  log2FC: -1.42
[13]
  log2FC: -1.34
[14]
  log2FC: 0.792
[15]
  log2FC: -0.559
[16]
  log2FC: 1.87
[17]
  log2FC: 0.902
[18]
  log2FC: 0.477
[19]
  log2FC: 1.16
[20]
  log2FC: 1.21
[21]
  log2FC: 1.12
[22]
  log2FC: 0.897
[23]
  log2FC: -0.89
[24]
  log2FC: -2.28
[25]
  log2FC: 1.01
[26]
  log2FC: 2.02
[27]
  log2FC: -0.801
[28]
  log2FC: 0.562
[29]
  log2FC: -0.65
[30]
  log2FC: -0.798
[31]
  log2FC: -0.642
[32]
  log2FC: -2.13
